Reference: article doi:10.1101/748574
No constants are given. Whether binding was seen depends on the method and setting. Binding seen in cells or lysates may run through a third protein. Some binding calls cover weakened binding; strength is not graded here. Each block holds one substance with its values, some of them ahead of it.

By UniProt entry, the sequences of proteins in these tests, tags left out. Where a name states a change or a piece, a line headed by the entry shows the natural chain unless it says otherwise. Residues count along the entry.
UniProt Q68DV7, 24-783: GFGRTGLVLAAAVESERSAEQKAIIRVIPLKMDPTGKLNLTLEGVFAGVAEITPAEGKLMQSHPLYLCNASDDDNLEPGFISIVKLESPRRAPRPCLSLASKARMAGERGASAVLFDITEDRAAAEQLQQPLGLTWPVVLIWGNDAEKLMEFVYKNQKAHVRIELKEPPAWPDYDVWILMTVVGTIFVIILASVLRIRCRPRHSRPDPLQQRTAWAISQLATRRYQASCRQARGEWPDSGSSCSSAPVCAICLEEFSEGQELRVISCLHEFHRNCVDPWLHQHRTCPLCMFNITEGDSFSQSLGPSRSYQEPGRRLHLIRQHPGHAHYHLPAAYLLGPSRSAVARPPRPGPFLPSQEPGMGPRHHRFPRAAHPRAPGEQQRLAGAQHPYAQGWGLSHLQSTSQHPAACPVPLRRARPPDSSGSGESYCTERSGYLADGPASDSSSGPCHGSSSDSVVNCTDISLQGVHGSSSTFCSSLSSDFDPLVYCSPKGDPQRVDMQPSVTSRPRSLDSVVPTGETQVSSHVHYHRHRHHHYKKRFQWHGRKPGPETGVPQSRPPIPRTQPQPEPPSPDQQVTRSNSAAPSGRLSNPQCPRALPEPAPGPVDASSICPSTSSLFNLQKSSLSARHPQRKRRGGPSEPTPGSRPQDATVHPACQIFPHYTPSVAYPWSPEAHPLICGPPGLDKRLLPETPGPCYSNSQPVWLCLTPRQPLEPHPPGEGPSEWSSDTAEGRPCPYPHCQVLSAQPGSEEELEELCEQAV
UniProt Q68DV7, 24-518: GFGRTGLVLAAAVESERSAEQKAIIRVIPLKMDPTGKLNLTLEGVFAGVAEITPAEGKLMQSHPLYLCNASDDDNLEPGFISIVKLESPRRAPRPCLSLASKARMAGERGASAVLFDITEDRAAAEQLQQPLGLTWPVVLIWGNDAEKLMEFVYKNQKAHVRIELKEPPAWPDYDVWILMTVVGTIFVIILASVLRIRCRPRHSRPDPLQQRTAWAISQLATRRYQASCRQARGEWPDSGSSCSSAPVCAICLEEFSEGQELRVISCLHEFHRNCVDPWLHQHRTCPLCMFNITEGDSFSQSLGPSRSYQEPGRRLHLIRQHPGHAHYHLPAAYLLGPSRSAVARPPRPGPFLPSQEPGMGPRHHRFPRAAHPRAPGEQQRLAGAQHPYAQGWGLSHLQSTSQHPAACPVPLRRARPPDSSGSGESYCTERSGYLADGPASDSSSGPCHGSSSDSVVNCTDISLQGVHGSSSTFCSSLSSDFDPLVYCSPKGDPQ
UniProt Q68DV7, 24-523: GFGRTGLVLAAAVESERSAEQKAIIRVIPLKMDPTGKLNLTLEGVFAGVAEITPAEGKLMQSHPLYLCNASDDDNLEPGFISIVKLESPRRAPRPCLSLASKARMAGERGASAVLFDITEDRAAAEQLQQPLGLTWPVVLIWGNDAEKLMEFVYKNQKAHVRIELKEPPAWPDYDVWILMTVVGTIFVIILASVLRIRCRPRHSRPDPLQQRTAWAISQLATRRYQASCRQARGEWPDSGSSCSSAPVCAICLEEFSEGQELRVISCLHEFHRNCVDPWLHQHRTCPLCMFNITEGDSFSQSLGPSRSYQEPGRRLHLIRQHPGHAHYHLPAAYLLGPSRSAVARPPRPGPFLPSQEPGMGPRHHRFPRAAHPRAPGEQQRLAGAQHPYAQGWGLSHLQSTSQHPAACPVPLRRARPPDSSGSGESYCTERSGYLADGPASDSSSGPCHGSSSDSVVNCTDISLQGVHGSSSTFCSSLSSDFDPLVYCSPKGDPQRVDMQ
UniProt P25054, whole entry: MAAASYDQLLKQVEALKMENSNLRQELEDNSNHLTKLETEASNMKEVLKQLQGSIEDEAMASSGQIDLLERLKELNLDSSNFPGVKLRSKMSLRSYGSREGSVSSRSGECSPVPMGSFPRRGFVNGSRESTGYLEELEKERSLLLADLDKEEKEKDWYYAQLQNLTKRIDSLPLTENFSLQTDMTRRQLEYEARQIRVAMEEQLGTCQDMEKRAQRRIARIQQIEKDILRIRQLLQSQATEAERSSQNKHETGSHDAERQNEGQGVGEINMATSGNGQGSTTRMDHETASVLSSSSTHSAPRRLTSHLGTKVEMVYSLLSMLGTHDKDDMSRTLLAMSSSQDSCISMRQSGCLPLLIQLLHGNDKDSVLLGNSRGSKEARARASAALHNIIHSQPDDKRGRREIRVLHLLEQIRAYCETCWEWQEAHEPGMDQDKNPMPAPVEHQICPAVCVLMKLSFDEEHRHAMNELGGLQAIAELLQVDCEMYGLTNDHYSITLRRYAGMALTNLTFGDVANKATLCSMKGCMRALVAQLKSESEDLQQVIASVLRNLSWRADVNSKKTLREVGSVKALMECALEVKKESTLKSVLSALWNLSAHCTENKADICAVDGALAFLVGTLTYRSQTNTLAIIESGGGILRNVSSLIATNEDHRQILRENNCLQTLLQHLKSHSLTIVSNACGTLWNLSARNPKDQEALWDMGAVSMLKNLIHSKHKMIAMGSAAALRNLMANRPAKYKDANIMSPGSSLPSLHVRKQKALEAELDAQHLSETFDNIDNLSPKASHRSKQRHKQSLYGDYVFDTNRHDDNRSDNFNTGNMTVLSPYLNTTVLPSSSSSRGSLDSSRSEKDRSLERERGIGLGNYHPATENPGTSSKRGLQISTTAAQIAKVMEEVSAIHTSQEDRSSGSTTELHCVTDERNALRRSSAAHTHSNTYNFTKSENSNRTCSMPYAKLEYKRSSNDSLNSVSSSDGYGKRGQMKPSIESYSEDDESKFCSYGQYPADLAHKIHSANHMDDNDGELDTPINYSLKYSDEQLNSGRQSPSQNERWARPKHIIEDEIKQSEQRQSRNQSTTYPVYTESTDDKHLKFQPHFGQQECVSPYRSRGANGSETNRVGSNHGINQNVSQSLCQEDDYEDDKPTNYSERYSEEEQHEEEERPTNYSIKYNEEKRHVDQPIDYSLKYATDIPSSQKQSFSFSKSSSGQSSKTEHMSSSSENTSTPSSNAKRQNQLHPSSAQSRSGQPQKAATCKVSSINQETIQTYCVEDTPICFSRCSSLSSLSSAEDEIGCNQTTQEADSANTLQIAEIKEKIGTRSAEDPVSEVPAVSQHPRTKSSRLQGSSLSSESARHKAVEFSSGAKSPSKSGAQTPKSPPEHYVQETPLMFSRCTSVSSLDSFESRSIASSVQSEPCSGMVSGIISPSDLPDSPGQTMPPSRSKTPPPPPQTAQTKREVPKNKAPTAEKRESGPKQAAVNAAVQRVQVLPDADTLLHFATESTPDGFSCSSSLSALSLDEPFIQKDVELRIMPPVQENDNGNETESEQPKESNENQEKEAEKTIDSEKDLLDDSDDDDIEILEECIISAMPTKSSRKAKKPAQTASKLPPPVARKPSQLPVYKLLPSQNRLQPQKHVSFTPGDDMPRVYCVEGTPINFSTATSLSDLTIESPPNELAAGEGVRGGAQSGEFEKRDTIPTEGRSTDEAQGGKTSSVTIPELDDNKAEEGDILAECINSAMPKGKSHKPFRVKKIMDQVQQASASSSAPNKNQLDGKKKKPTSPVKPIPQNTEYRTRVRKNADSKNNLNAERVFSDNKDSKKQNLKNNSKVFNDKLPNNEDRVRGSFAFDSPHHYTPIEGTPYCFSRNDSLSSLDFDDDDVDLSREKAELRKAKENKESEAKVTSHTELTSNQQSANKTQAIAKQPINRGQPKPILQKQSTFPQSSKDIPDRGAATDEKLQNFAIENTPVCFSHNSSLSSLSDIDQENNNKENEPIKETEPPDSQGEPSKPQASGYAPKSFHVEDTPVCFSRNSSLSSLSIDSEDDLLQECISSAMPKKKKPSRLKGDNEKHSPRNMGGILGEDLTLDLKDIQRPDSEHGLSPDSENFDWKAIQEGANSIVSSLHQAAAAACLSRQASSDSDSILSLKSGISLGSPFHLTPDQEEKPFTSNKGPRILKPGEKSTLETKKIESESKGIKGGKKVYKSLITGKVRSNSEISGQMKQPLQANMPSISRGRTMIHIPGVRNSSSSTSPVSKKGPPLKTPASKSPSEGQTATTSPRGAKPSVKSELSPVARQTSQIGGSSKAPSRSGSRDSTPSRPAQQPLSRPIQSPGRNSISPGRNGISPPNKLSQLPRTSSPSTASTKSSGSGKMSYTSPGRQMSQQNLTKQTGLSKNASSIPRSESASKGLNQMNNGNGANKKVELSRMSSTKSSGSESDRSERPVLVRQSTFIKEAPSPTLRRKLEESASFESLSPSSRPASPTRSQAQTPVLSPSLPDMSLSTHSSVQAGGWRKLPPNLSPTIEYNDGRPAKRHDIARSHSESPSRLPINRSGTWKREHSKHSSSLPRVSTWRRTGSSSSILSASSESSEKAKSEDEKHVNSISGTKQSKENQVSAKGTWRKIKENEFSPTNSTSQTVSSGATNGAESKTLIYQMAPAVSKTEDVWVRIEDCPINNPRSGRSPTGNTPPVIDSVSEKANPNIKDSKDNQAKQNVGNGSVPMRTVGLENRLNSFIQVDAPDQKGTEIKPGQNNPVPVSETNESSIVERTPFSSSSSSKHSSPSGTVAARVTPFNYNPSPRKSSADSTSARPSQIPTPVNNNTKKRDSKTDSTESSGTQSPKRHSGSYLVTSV
UniProt O15169, whole entry: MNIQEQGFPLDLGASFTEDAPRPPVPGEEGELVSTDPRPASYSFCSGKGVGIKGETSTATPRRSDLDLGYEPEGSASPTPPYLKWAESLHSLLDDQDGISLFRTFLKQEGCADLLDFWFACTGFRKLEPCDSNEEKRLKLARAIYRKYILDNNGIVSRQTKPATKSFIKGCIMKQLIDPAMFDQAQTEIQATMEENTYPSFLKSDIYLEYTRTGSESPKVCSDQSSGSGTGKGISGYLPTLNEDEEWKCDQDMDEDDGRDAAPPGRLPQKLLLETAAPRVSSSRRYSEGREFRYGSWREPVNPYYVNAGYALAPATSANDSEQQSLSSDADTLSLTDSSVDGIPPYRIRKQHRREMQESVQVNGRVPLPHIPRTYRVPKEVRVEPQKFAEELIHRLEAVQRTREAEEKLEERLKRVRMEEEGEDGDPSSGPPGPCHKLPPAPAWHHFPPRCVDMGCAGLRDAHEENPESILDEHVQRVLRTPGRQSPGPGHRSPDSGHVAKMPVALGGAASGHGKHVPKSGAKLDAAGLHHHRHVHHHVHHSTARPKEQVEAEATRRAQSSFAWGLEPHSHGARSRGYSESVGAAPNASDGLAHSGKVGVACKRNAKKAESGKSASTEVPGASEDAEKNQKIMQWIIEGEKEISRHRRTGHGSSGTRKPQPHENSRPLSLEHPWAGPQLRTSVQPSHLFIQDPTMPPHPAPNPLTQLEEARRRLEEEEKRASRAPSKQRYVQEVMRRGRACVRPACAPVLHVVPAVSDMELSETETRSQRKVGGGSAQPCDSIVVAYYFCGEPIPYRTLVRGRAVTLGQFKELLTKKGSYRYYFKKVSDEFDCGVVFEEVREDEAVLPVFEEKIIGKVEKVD
UniProt P49841, whole entry: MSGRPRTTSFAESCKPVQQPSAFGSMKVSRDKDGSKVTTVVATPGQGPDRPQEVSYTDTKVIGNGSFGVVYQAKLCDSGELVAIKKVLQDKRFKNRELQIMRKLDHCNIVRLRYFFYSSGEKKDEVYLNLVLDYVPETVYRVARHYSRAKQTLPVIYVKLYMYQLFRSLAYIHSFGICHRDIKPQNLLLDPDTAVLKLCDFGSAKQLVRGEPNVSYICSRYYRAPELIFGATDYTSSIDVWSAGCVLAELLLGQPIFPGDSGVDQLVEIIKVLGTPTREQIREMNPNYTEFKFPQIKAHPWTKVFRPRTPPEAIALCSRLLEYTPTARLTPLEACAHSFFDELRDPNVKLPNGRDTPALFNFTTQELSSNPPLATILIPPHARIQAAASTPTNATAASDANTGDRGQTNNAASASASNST
UniProt P49674, whole entry: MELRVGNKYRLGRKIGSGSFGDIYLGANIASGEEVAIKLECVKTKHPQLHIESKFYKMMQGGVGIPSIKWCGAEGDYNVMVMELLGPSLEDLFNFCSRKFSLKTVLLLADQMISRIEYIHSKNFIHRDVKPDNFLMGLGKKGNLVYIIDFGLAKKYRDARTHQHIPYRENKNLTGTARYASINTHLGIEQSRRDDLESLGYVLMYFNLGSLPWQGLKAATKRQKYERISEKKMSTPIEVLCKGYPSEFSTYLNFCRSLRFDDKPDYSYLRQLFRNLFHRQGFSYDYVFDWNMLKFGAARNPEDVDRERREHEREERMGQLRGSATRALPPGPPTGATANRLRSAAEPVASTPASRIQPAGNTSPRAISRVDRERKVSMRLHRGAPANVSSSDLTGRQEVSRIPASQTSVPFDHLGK

How the values were obtained:
Experiment in all cases: co-IP
RNF43 R519X (human) = RNF43 R519X (human) (UniProt Q68DV7)
[1] = molecular target: RNF43–2×Flag–HA, wild type (human) (UniProt Q68DV7)
V5-APC = V5-APC (UniProt P25054)
[2] = molecular target: Axin1, endogenous (human (endogenous in HEK293T and T-REx-293)) (UniProt O15169)
RNF43 P524X (human) = RNF43 P524X (human) (UniProt Q68DV7)

binding (RNF43 R519X (human)): binds
binding [1]: binds
Substance: Axin1, endogenous (from UniProt O15169 1-862)

binding [1]: binds
Substance: GSK3β, endogenous (from UniProt P49841 1-420) (enzyme)

binding [2]: binds
Substance: RNF43 R519X (from UniProt Q68DV7 24-518) (domain or fragment)

Continued, substance first:

Substance: Casein kinase 1 epsilon, endogenous (from UniProt P49674 1-416) (enzyme)
binding (RNF43 R519X (human)): binds
binding [1]: binds

Substance: RNF43 P524X (from UniProt Q68DV7 24-523) (domain or fragment)
binding (V5-APC): binds

Substance: RNF43–2×Flag–HA, wild type (from UniProt Q68DV7 24-783)
binding [2]: binds
binding (V5-APC): binds

Substance: myc-GSK3β (from UniProt P49841 1-420) (enzyme)
binding (RNF43 P524X (human)): binds
binding [1]: binds
